Experimental findings from publication PMC11963662 are described below.

Assay in all cases: co-IP; Co-IP kit (IEMed, K235); 2 x 10^7 cells crosslinked with 1% formaldehyde at room temperature for 10 min, heat denatured at 95 °C for 15 min; antibody-Protein A/G magnetic beads (anti-FDX1, anti-LIPT1); detection by Western blot
In general terms: Immunoblotting shows a protein as a band on a membrane.

The target of test [1] is T1, lipoyltransferase 1 (LIPT1) (human) (UniProt Q9Y234).
T1 sequence: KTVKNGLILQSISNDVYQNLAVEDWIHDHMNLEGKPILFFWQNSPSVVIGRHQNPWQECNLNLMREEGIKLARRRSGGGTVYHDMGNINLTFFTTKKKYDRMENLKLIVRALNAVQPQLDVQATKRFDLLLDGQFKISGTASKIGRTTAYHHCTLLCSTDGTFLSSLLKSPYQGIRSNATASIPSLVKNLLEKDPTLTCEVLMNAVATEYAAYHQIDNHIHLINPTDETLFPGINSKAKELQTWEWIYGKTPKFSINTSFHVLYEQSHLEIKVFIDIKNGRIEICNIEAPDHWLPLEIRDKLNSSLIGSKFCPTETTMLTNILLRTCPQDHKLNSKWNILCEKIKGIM

Test [2] deals with T2, ferredoxin 1 (FDX1) (human) (UniProt P10109).
T2 sequence: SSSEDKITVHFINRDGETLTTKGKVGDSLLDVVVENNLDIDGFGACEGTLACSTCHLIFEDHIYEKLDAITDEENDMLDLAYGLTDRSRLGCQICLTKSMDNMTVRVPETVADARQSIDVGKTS

Test [3] deals with T3, ferredoxin 1 (FDX1) (human), P10109.
T3 chain: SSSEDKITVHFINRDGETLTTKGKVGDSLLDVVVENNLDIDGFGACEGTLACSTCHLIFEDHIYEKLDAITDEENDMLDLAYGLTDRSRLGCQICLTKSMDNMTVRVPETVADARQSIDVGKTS
The conditions noted are these: remark: other sources report otherwise.

These are yes or no findings as the source states them, for the method shown. Binding seen in cells or lysates may run through a third protein. Some binding calls cover weakened binding; strength is not graded here.

B1: pyruvate dehydrogenase complex isoform (DLAT) (enzyme, UniProt P10515 87-647)
chain: SLPPHQKVPLPSLSPTMQAGTIARWEKKEGDKINEGDLIAEVETDKATVGFESLEECYMAKILVAEGTRDVPIGAIICITVGKPEDIEAFKNYTLDSSAAPTPQAAPAPTPAATASPPTPSAQAPGSSYPPHMQVLLPALSPTMTMGTVQRWEKKVGEKLSEGDLLAEIETDKATIGFEVQEEGYLAKILVPEGTRDVPLGTPLCIIVEKEADISAFADYRPTEVTDLKPQVPPPTPPPVAAVPPTPQPLAPTPSAPCPATPAGPKGRVFVSPLAKKLAVEKGIDLTQVKGTGPDGRITKKDIDSFVPSKVAPAPAAVVPPTGPGMAPVPTGVFTDIPISNIRRVIAQRLMQSKQTIPHYYLSIDVNMGEVLLVRKELNKILEGRSKISVNDFIIKASALACLKVPEANSSWMDTVIRQNHVVDVSVAVSTPAGLITPIVFNAHIKGVETIANDVVSLATKAREGKLQPHEFQGGTFTISNLGMFGIKNFSAIINPPQACILAIGASEDKLVPADNEKGFDVASMMSVTLSCDHRVVDGAVGAQWLAEFRKYLEKPITMLL
In the case of B1, the binding result in test [1] and in test [2] was “binds” each time.

B2: lipoic acid synthase (LIAS), O43766 28-372 (enzyme)
chain: LSSLPDKKKELLQNGPDLQDFVSGDLADRSTWDEYKGNLKRQKGERLRLPPWLKTEIPMGKNYNKLKNTLRNLNLHTVCEEARCPNIGECWGGGEYATATATIMLMGDTCTRGCRFCSVKTARNPPPLDASEPYNTAKAIAEWGLDYVVLTSVDRDDMPDGGAEHIAKTVSYLKERNPKILVECLTPDFRGDLKAIEKVALSGLDVYAHNVETVPELQSKVRDPRANFDQSLRVLKHAKKVQPDVISKTSIMLGLGENDEQVYATMKALREADVDCLTLGQYMQPTRRHLKVEEYITPEKFKYWEKVGNELGFHYTASGPLVRSSYKAGEFFLKNLVAKRKTKDL
As to B2, the binding entry in test [3] was “binds”.

B3: lipoyltransferase 1 (LIPT1) (enzyme, UniProt Q9Y234 26-373)
chain: KTVKNGLILQSISNDVYQNLAVEDWIHDHMNLEGKPILFFWQNSPSVVIGRHQNPWQECNLNLMREEGIKLARRRSGGGTVYHDMGNINLTFFTTKKKYDRMENLKLIVRALNAVQPQLDVQATKRFDLLLDGQFKISGTASKIGRTTAYHHCTLLCSTDGTFLSSLLKSPYQGIRSNATASIPSLVKNLLEKDPTLTCEVLMNAVATEYAAYHQIDNHIHLINPTDETLFPGINSKAKELQTWEWIYGKTPKFSINTSFHVLYEQSHLEIKVFIDIKNGRIEICNIEAPDHWLPLEIRDKLNSSLIGSKFCPTETTMLTNILLRTCPQDHKLNSKWNILCEKIKGIM
Turning to B3, the binding result in test [2] is listed as “binds”.
